PubChem BioAssay AID686937 – Drosophila RNAi Screening Center | 2013
Test: 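Knock-downs that reduce output of a secreted reporter enzyme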 (primary screen). Cell system: Drosophila S2 cells expressing secreted horseradish peroxidase. Reagents: long dsRNA against Drosophila genes. Timing: about 5.5 days (5 days dsRNA, then 12 h reporter induction). Challenge: reporter expression induced after 5 days of dsRNA, read 12 h later; inducer not stated. Measurement: 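Chemiluminescent measurement of peroxidase in the medium 12 h after reporter induction, following 5 days of dsRNA, given as a z-score per plate; higher means more secretion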. Scale: z-score: higher = more reporter secreted into medium.
In all, the deposit lists about 23,000 reagents; shown is an unselected part of those that have a named target and a result. 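Reduced-secretion tags in replicate 1 do not always agree with the z-scores; no criterion for assigning the tags was given.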 Names joined by + are all predicted targets of the reagent. Further read-outs or replicates are left out here. The record does not give: the amount of reagent.

For TwdlH [DRSC14735], the entry reads z-score, replicate 1 = 0.53.
Depletion of DIP1 [DRSC20818] gave: z-score, replicate 1 = 0.5.
After knock-down of CG30479 [DRSC06735] the results were z-score, replicate 1 = 0.06.
Knock-down of Pk34A [DRSC03398] gave: z-score, replicate 1 = 0.15.
Silencing of CG14089 [DRSC10093] came out at: z-score, replicate 1 = 0.25.
Depletion of mre11 [DRSC03570] resulted in: z-score, replicate 1 = 0.5.
Knock-down of mre11 [DRSC22628] gave: z-score, replicate 1 = 0.1.
With knock-down of CG1161 [DRSC12180], the screen gave z-score, replicate 1 = -2.52.
With knock-down of CG10761 [DRSC17753], the record shows z-score, replicate 1 = 0.32.
With knock-down of LManV [DRSC03223] the results were z-score, replicate 1 = 0.26.
grk [DRSC03540] showed z-score, replicate 1 = 0.4.
With knock-down of Ir75c [DRSC10190], the screen gave z-score, replicate 1 = 0.16.
With knock-down of Atg8b [DRSC14501] the results were z-score, replicate 1 = 0.2.
With knock-down of akirin [DRSC11000] the results were z-score, replicate 1 = -0.55.
For CG3588 [DRSC18473], the values are z-score, replicate 1 = 0.33.
Depletion of Tdc1 [DRSC04942] resulted in: z-score, replicate 1 = 0.25.
Taf7 [DRSC15445] gave z-score, replicate 1 = -0.63.
Silencing of Gr58c [DRSC04136] resulted in: z-score, replicate 1 = 0.24.
With knock-down of CG14823 [DRSC10194] the results were z-score, replicate 1 = -0.09.
After knock-down of Helz [DRSC11072] the results were z-score, replicate 1 = 0.42.

5 successive records from above:
Atg8b [DRSC14501] → z-score, replicate 1: 0.2
akirin [DRSC11000] → z-score, replicate 1: -0.55
CG3588 [DRSC18473] → z-score, replicate 1: 0.33
Tdc1 [DRSC04942] → z-score, replicate 1: 0.25
Taf7 [DRSC15445] → z-score, replicate 1: -0.63

The results go on.
Knock-down of CG32176 [DRSC10057] came out at: z-score, replicate 1 = -0.25.
Depletion of CG32176 [DRSC10058] came out at: z-score, replicate 1 = -0.25.
Golgin97 [DRSC06895] showed z-score, replicate 1 = 0.49.
With knock-down of SP2353 [DRSC07545], the screen gave z-score, replicate 1 = 0.62.
Depletion of Gpa2 [DRSC21071] came out at: z-score, replicate 1 = 0.08.
Depletion of CG43322 [DRSC02280] gave: z-score, replicate 1 = 0.07.
Silencing of Vps26 [DRSC18555] gave: z-score, replicate 1 = 0.9.
Depletion of CG10948 [DRSC09806] resulted in: z-score, replicate 1 = 0.15.
CG13616 [DRSC14619] gave z-score, replicate 1 = -0.67.
TM9SF2 [DRSC03197] gave z-score, replicate 1 = 0.3.
Silencing of qless [DRSC15103] gave: z-score, replicate 1 = -0.34.
Depletion of qless [DRSC15507] gave: z-score, replicate 1 = -0.28.
With knock-down of CG6465 [DRSC16046] the results were z-score, replicate 1 = 0.2.
Silencing of msd5 [DRSC08560] resulted in: z-score, replicate 1 = 0.21.
For Ir7c [DRSC18007] the deposit lists z-score, replicate 1 = -0.02.
Knock-down of CG5281 [DRSC15761] came out at: z-score, replicate 1 = 0.27.
Depletion of dsf [DRSC03524] gave: z-score, replicate 1 = -0.11.
Depletion of CG31806 [DRSC02787] gave: z-score, replicate 1 = -0.31.
Silencing of CG43125 [DRSC13866] gave: z-score, replicate 1 = 0.24.
Silencing of Gcn2 [DRSC16678] gave: z-score, replicate 1 = 0.27.
For Pp2A-29B [DRSC03400], the entry reads z-score, replicate 1 = 0.46.
HGTX [DRSC09319] scored z-score, replicate 1 = 0.45.
For HGTX [DRSC11181] the deposit lists z-score, replicate 1 = 0.41.
Against CG31674 [DRSC03208] the deposit lists z-score, replicate 1 = 0.55.
For sala + CG43355 [DRSC01188] the deposit lists z-score, replicate 1 = 0.5.
Knock-down of sala + CG43355 [DRSC03605] resulted in: z-score, replicate 1 = -0.42.
After knock-down of CG14854 [DRSC14978], the record shows z-score, replicate 1 = 0.47.
Asap [DRSC06493] showed z-score, replicate 1 = 0.49.
With knock-down of Asap [DRSC06830] the results were z-score, replicate 1 = 0.16.
Silencing of AP-1-2beta [DRSC19336] gave: z-score, replicate 1 = -1.58.
With knock-down of lz [DRSC18790], the screen gave z-score, replicate 1 = 0.11.
With knock-down of lz [DRSC22302] the results were z-score, replicate 1 = -0.08.
